Results published in the supplement of paper PMC10849652.
The other results are listed elsewhere or left out.

By UniProt entry, the sequences of proteins in these tests, tags left out. Where a name states a change or a piece, a line headed by the entry shows the natural chain unless it says otherwise.
UniProt P33527: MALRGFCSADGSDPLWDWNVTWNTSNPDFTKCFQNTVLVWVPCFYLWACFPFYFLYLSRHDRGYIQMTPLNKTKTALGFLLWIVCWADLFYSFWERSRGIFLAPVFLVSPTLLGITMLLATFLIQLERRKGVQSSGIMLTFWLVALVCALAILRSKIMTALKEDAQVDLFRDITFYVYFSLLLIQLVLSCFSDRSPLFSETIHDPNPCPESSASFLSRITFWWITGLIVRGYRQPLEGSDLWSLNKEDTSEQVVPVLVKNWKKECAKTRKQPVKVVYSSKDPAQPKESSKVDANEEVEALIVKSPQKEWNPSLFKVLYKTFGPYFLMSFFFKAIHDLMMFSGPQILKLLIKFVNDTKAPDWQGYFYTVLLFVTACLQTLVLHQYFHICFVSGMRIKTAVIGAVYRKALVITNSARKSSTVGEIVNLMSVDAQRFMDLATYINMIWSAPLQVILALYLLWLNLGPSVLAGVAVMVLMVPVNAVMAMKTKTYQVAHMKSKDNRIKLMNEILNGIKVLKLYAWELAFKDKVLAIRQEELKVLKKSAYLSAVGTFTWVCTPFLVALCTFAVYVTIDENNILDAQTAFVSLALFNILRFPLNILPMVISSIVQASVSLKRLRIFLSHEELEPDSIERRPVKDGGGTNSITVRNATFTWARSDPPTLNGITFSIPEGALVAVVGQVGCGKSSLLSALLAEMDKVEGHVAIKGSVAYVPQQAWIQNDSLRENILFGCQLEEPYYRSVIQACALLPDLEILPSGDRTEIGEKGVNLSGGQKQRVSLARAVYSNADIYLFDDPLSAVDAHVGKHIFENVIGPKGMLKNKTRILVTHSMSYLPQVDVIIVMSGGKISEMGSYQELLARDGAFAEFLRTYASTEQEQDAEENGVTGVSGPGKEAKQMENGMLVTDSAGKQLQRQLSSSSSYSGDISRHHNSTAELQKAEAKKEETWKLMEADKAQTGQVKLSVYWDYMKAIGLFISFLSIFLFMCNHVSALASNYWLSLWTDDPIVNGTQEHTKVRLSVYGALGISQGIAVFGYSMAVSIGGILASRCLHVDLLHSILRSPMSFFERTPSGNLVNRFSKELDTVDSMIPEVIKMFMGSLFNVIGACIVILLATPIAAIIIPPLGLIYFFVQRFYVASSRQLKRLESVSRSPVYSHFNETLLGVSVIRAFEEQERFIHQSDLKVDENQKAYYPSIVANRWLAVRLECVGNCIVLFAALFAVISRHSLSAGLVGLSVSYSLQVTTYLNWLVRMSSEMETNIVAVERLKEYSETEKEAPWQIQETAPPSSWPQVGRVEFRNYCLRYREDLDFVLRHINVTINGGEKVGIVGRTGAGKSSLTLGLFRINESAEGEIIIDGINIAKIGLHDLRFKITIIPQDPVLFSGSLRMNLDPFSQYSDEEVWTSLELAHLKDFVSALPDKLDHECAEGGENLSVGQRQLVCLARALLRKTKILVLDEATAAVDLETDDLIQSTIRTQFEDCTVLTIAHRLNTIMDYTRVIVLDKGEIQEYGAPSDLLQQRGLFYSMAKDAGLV
UniProt Q9NY61: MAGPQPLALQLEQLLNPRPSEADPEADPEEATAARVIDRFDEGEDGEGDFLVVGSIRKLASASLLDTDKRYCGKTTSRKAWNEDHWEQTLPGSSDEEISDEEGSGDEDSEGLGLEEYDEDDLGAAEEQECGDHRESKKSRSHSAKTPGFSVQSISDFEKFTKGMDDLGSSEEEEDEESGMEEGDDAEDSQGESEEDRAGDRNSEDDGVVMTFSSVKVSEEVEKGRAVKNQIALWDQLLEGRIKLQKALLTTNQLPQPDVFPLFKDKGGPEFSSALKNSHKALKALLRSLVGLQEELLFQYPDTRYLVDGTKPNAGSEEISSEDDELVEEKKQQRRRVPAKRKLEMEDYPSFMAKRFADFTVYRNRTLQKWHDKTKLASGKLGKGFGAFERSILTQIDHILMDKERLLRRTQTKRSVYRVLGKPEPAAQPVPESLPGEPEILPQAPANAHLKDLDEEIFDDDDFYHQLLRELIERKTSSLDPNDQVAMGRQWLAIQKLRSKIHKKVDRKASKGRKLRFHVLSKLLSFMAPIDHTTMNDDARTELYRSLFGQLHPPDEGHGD
UniProt P28288: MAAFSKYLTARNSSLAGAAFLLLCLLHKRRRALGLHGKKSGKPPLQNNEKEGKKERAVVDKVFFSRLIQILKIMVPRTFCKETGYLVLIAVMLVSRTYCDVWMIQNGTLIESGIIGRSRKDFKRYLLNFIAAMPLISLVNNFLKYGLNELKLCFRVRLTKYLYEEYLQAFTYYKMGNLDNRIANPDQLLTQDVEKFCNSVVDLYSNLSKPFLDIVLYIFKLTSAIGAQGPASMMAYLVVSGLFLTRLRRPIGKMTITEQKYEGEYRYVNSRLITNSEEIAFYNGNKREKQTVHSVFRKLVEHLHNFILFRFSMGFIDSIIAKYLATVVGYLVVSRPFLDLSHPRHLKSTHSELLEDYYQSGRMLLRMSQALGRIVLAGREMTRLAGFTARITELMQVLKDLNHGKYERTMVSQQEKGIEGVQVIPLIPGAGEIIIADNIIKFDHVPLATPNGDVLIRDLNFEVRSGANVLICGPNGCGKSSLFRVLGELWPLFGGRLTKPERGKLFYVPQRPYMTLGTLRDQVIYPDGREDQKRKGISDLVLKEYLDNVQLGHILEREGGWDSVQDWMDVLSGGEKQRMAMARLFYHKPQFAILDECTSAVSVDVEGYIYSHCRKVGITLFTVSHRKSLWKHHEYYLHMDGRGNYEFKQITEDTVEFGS
UniProt P42684, whole entry, looked up: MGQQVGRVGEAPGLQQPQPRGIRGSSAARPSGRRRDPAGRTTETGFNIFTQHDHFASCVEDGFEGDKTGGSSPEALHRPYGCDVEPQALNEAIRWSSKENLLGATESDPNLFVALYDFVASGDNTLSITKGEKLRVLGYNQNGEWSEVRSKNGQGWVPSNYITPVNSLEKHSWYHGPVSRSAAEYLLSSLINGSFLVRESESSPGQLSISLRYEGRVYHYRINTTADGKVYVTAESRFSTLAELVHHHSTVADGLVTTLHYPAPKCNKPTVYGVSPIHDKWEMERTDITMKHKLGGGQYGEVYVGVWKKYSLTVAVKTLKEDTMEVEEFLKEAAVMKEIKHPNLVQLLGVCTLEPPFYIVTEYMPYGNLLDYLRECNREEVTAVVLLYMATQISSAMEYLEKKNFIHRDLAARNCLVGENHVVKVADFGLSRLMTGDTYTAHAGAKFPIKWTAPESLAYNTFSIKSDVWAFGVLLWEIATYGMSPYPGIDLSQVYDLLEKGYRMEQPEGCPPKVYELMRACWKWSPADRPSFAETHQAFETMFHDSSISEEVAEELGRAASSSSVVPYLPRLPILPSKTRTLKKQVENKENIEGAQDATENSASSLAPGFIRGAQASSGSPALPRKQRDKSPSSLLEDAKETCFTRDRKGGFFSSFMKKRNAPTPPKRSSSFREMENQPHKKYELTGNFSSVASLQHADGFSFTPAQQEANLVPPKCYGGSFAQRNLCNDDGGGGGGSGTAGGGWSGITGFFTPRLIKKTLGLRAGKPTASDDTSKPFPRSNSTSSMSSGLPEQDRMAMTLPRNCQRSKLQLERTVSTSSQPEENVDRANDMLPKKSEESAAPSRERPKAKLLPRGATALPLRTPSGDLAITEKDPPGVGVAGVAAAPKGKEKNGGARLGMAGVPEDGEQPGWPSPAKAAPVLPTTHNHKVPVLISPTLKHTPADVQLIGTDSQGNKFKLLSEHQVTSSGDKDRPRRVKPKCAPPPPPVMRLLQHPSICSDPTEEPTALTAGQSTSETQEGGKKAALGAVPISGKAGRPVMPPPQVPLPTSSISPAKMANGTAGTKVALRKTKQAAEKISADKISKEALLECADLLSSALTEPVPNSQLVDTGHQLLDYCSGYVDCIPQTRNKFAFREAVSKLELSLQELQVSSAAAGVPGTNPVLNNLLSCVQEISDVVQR
UniProt O15439: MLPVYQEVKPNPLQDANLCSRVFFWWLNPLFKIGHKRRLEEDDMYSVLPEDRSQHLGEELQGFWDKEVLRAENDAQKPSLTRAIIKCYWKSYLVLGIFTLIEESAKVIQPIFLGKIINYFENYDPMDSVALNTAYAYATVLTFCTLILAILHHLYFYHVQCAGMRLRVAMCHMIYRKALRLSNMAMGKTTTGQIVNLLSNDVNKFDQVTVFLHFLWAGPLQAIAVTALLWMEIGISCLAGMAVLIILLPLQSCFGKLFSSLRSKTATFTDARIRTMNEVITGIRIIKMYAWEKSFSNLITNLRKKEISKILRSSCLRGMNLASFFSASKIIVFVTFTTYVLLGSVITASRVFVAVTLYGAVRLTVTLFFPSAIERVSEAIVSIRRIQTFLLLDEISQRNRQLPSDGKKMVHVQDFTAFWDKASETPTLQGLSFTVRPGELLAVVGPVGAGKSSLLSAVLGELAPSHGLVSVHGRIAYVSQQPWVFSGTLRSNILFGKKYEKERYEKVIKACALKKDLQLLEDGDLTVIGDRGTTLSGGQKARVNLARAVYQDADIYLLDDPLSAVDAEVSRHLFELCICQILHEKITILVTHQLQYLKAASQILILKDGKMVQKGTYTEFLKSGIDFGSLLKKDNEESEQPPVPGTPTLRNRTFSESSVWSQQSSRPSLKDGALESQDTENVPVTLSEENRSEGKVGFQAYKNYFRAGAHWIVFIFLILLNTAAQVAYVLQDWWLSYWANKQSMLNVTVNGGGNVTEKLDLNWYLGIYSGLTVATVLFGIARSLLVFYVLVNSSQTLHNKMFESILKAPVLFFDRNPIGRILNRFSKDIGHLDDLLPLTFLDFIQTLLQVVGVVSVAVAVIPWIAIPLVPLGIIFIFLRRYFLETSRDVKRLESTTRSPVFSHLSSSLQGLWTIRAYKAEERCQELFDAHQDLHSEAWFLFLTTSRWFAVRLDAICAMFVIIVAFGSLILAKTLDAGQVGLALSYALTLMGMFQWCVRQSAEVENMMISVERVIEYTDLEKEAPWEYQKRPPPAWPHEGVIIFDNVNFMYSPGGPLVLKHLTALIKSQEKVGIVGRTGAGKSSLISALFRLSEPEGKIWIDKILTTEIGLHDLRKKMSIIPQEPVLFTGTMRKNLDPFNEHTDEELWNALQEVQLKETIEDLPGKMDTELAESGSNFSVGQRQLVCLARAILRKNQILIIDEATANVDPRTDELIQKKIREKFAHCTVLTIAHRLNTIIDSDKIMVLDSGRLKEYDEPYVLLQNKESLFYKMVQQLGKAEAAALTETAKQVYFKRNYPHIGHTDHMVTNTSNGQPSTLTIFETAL
UniProt Q6UWZ7: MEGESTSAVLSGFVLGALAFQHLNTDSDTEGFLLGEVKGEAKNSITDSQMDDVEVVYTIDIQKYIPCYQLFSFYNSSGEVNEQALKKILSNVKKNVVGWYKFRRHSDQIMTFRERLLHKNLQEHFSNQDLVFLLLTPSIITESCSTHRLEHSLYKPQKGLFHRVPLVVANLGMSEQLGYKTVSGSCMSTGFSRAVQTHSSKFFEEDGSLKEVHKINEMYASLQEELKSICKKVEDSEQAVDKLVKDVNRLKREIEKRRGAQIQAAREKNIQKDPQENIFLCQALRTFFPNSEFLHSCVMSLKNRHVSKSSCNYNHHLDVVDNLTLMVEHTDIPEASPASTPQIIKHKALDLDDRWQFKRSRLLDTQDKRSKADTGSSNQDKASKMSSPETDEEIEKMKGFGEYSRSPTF
UniProt P49748: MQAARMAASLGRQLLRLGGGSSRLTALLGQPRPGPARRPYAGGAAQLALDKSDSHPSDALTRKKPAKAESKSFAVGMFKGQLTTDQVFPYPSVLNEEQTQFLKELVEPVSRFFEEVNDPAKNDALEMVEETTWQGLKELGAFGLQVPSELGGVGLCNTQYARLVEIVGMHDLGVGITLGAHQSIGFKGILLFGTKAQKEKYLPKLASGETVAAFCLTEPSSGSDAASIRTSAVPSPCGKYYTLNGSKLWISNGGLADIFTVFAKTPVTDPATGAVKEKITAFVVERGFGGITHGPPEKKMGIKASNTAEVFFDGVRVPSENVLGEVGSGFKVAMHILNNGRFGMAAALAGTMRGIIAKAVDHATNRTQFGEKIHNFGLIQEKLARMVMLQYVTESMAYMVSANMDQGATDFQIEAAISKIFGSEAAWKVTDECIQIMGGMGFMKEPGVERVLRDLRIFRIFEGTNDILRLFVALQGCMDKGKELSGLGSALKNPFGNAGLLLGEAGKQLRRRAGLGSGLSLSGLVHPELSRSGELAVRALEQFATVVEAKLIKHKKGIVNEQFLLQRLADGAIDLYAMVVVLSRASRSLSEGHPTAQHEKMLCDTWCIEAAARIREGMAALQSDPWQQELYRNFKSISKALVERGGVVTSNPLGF

Tests used:
Assay in all cases: log2 fold change, soluble protein after heating vs DMSO (PISA); higher = thermal stabilisation; K562 lysate, 10 uM; active = over 0.2 and 3.5 SD of the protein, either way, in both replicates (recomputed)
vemurafenib = compound: CCCS(=O)(=O)Nc1ccc(F)c(C(=O)c2c[nH]c3ncc(-c4ccc(Cl)cc4)cc23)c1F [vemurafenib]
Summary of the method: (§1)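 To prepare the extract, K562 pellets were dounce-homogenised in PBS pH 7.4 with 1 mM MgCl2, giving crude material at 1 mg/mL protein. This was treated with 10 μM compound for 30 min, then heated in aliquots for 3 min over 48°C-58°C before pooling and addition of NP-40 to 0.5% at 4°C. Centrifugation at 21,000xg for 90 min left soluble protein in the supernatant, which TMTpro 16plex LC-MS/MS quantified with equalised channel sums. Results are log-two fold changes in thermal stability compared with solvent controls, from duplicates.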

[1] = compound: CCCS(=O)(=O)Nc1ccc(F)c(C(=O)c2c[nH]c3ncc(Cl)cc23)c1F
Summary of the method: as §1

barasertib = compound: CCN(CCCOc1ccc2c(Nc3cc(CC(=O)Nc4cccc(F)c4)[nH]n3)ncnc2c1)CCOP(=O)(O)O [barasertib]
Summary of the method: as §1

[2] = compound: CC[C@@H]1C(=O)N(C)c2cnc(Nc3ccc(C(=O)NC4CCN(C)CC4)cc3OC)nc2N1C1CCCC1
Summary of the method: as §1

volasertib = compound: CC[C@@H]1C(=O)N(C)c2cnc(Nc3ccc(C(=O)N[C@H]4CC[C@H](N5CCN(CC6CC6)CC5)CC4)cc3OC)nc2N1C(C)C [volasertib]
Summary of the method: as §1

[3] = compound: CCn1c(C(=O)N(C2CC2)C2CC2)cc2c3c(ncn3C)c(Nc3cc(C)n(C)n3)nc21
Summary of the method: as §1

[4] = compound: CCn1cc(-c2ccnc3[nH]c(-c4cccc(CN(C)C)c4)cc23)c(-c2ccc(NC(=O)N(C)C)cc2)n1
Summary of the method: as §1

[5] = compound: CN1CCC(CNc2ccc3ncc(-c4cccc(OC(F)(F)F)c4)n3n2)CC1
Summary of the method: as §1

saracatinib = compound: CN1CCN(CCOc2cc(OC3CCOCC3)c3c(Nc4c(Cl)ccc5c4OCO5)ncnc3c2)CC1 [saracatinib]
Summary of the method: as §1

sotrastaurin = compound: CN1CCN(c2nc(C3=C(c4c[nH]c5ccccc45)C(=O)NC3=O)c3ccccc3n2)CC1 [sotrastaurin]
Summary of the method: as §1

alvocidib = compound: CN1CC[C@H](c2c(O)cc(O)c3c(=O)cc(-c4ccccc4Cl)oc23)[C@H](O)C1 [alvocidib]
Summary of the method: as §1

Tubastatin A = compound: CN1CCc2c(c3ccccc3n2Cc2ccc(C(=O)NO)cc2)C1 [Tubastatin A]
Summary of the method: as §1

[6] = compound: CNC(=O)C1=CC=CC=C1NC2=NC(=NC=C2Cl)NC3=C(C=C(C=C3)N4CCOCC4)OC
Summary of the method: as §1

defactinib = compound: CNC(=O)c1ccc(Nc2ncc(C(F)(F)F)c(NCc3nccnc3N(C)S(C)(=O)=O)n2)cc1 [defactinib]
Summary of the method: as §1

[7] = compound: CNc1nc(-c2ccc3c(N)n[nH]c3c2)cc(N2C[C@@H](C(=O)NC3CCCCC3)CC[C@H]2C)n1
Summary of the method: as §1

encorafenib = compound: COC(=O)N[C@@H](C)CNc1nccc(-c2cn(C(C)C)nc2-c2cc(Cl)cc(NS(C)(=O)=O)c2F)n1 [encorafenib]
Summary of the method: as §1

[8] = compound: COC(=O)[C@H](CCSC)NC(=O)C1=C(C=C(C=C1)NC[C@H](CS)N)C2=CC=CC=C2
Summary of the method: as §1

alisertib = compound: COc1cc(Nc2ncc3c(n2)-c2ccc(Cl)cc2C(c2c(F)cccc2OC)=NC3)ccc1C(=O)O [alisertib]
Summary of the method: as §1

[9] = compound: COc1cc2nc(-c3cc(F)ccc3O)nc(N[C@@H]3CNC[C@H]3C(C)(C)O)c2cc1OC
Summary of the method: as §1

gefitinib = compound: COc1cc2ncnc(Nc3ccc(F)c(Cl)c3)c2cc1OCCCN1CCOCC1 [gefitinib]
Summary of the method: as §1

Measured: log2 fold change

ABCC1 (UniProt P33527)
inactive: vemurafenib -0.016 | [1] 0.015 | barasertib -0.016 | [2] 0.006 | volasertib 0.016 | [3] 0.012 | [4] -0.032 | [5] 0.02 | saracatinib 0.022 | sotrastaurin -0.014 | alvocidib -0.003 | Tubastatin A 0.017 | [6] -0.024 | defactinib -0.02 | [7] 0.017 | encorafenib 0.009 | [8] 0.03 | alisertib 0.027 | [9] -0.029 | gefitinib -0.063

AATF (UniProt Q9NY61)
inactive: vemurafenib 0.151 | [1] 0.048 | barasertib -0.109 | [2] -0.002 | volasertib 0.008 | [3] 0.001 | [4] -0.232 | [5] -0.079 | saracatinib -0.007 | sotrastaurin 0.055 | alvocidib 0.06 | Tubastatin A -0.013 | [6] -0.095 | defactinib 0.01 | [7] -0.052 | encorafenib 0.01 | [8] 0.138 | alisertib -0.121 | [9] 0.023 | gefitinib -0.014

A0A0B4J2A0, A0A0B4J2A0
inactive: vemurafenib -0.004 | [1] 0.057 | barasertib 0.022 | [2] 0.046 | volasertib -0.015 | [3] -0.043 | [4] -0.017 | [5] -0.006 | saracatinib 0.009 | sotrastaurin 0.042 | alvocidib -0.003 | Tubastatin A -0.002 | [6] -0.016 | defactinib 0.027 | [7] 0.026 | encorafenib 0.028 | [8] 0.005 | alisertib -0.045 | [9] 0.013 | gefitinib 0

ABCD3 (UniProt P28288)
active: [8] 0.444
inactive: vemurafenib 0.078 | [1] 0.058 | barasertib 0.053 | [2] -0.077 | volasertib -0.029 | [3] -0.07 | [4] -0.054 | [5] 0.044 | saracatinib -0.071 | sotrastaurin 0.073 | alvocidib -0.064 | Tubastatin A 0.1 | [6] -0.114 | defactinib -0.019 | [7] -0.048 | encorafenib 0.028 | alisertib 0.044 | [9] -0.013 | gefitinib 0.145

ABL2 (UniProt P42684)
inactive: vemurafenib 0.233 | [1] 0.222 | barasertib -0.002 | [2] 0.11 | volasertib -0.05 | [3] 0.009 | [4] 0.039 | [5] -0.128 | saracatinib 0.254 | sotrastaurin -0.02 | alvocidib 0.007 | Tubastatin A -0.04 | [6] 0.082 | defactinib 0.066 | [7] -0.108 | encorafenib 0.092 | [8] -0.068 | alisertib -0.123 | [9] -0.009 | gefitinib -0.176

ABRAXAS2 (UniProt Q15018)
inactive: vemurafenib -0.016 | [1] -0.012 | barasertib -0.017 | [2] 0.014 | volasertib -0.012 | [3] 0.04 | [4] 0.119 | [5] -0.002 | saracatinib 0.003 | sotrastaurin -0.036 | alvocidib 0.037 | Tubastatin A 0.023 | [6] 0.01 | defactinib 0.018 | [7] -0.028 | encorafenib 0.012 | [8] 0.004 | alisertib -0.005 | [9] -0.005 | gefitinib -0.02

ABLIM1 (UniProt O14639)
inactive: vemurafenib 0.014 | [1] 0.013 | barasertib 0.129 | [2] 0.073 | volasertib 0.011 | [3] 0.093 | [4] -0.17 | [5] 0.117 | saracatinib -0.008 | sotrastaurin -0.028 | alvocidib -0.095 | Tubastatin A 0.058 | [6] 0.029 | defactinib -0.045 | [7] 0.065 | encorafenib -0.069 | [8] -0.034 | alisertib 0.093 | [9] 0.01 | gefitinib 0.009

ABCB7 isoform 2 (UniProt O75027)
inactive: vemurafenib 0.043 | [1] -0.02 | barasertib 0.018 | [2] -0.07 | volasertib 0.014 | [3] 0.041 | [4] -0.078 | [5] -0.061 | saracatinib 0.014 | sotrastaurin 0.007 | alvocidib 0.014 | Tubastatin A 0.009 | [6] -0.08 | defactinib -0.065 | [7] -0.088 | encorafenib -0.028 | [8] 0.064 | alisertib 0.048 | [9] 0.01 | gefitinib -0.07

ACAT2 (UniProt Q9BWD1)
inactive: vemurafenib 0.02 | [1] -0.006 | barasertib -0.04 | [2] 0.017 | volasertib 0.012 | [3] -0.028 | [4] 0 | [5] 0.009 | saracatinib 0.006 | sotrastaurin -0.037 | alvocidib 0.027 | Tubastatin A 0.083 | [6] 0.002 | defactinib 0.033 | [7] 0.065 | encorafenib -0.045 | [8] -0.021 | alisertib 0.012 | [9] 0.006 | gefitinib -0.007

ABCB6 (UniProt Q9NP58)
inactive: vemurafenib 0.03 | [1] 0.023 | barasertib -0.012 | [2] 0.042 | volasertib -0.023 | [3] -0.028 | [4] -0.058 | [5] -0.042 | saracatinib 0.007 | sotrastaurin 0.005 | alvocidib -0.017 | Tubastatin A 0.035 | [6] 0.016 | defactinib -0.023 | [7] 0.239 | encorafenib 0.041 | [8] 0.007 | alisertib 0.009 | [9] -0.004 | gefitinib -0.02

ABCF2 isoform 2 (UniProt Q9UG63)
inactive: vemurafenib 0.017 | [1] 0.002 | barasertib -0.014 | [2] -0.072 | volasertib -0.045 | [3] 0.026 | [4] -0.008 | [5] -0.026 | saracatinib 0 | sotrastaurin 0.036 | alvocidib 0.004 | Tubastatin A -0.169 | [6] -0.001 | defactinib -0.039 | [7] 0.005 | encorafenib -0.005 | [8] 0.08 | alisertib 0.014 | [9] 0.025 | gefitinib -0.02

ABCC4 (UniProt O15439)
inactive: vemurafenib 0.064 | [1] 0.039 | barasertib 0.026 | [2] 0.045 | volasertib 0.047 | [3] -0.018 | [4] -0.083 | [5] 0.051 | saracatinib 0.016 | sotrastaurin -0.005 | alvocidib -0.02 | Tubastatin A 0.021 | [6] 0.015 | defactinib -0.01 | [7] 0.018 | encorafenib 0.007 | [8] 0.005 | alisertib -0.017 | [9] 0.026 | gefitinib 0.008

ABRAXAS1 (UniProt Q6UWZ7)
inactive: vemurafenib 0.009 | [1] -0.016 | barasertib 0.046 | [2] 0.082 | volasertib -0.034 | [3] -0.007 | [4] -0.072 | [5] 0.009 | saracatinib 0.12 | sotrastaurin 0.023 | alvocidib 0.014 | Tubastatin A -0.102 | [6] 0.025 | defactinib 0.054 | [7] -0.051 | encorafenib 0.002 | [8] -0.024 | alisertib -0.108 | [9] -0.044 | gefitinib -0.068

AAK1, A0A096LP25
inactive: vemurafenib -0.017 | [1] 0.018 | barasertib -0.012 | [2] 0.114 | volasertib 0.042 | [3] -0.009 | [4] -0.069 | [5] 0.36 | saracatinib 0.046 | sotrastaurin 0.023 | alvocidib 0.032 | Tubastatin A -0.003 | [6] 0.447 | defactinib 0.015 | [7] 0.327 | encorafenib -0.167 | [8] -0.197 | alisertib -0.018 | [9] -0.05 | gefitinib -0.012

ACADVL isoform 3 (UniProt P49748)
inactive: vemurafenib -0.014 | [1] 0 | barasertib -0.028 | [2] 0.083 | volasertib 0.054 | [3] 0.005 | [4] -0.04 | [5] 0.058 | saracatinib -0.048 | sotrastaurin 0.009 | alvocidib -0.009 | Tubastatin A 0.032 | [6] -0.075 | defactinib -0.033 | [7] 0.042 | encorafenib -0.008 | [8] 0.014 | alisertib -0.015 | [9] -0.002 | gefitinib 0.01

ACACA isoform 4 (UniProt Q13085)
inactive: vemurafenib 0.014 | [1] 0.024 | barasertib 0.043 | [2] -0.062 | volasertib -0.085 | [3] 0.056 | [4] -0.025 | [5] -0.067 | saracatinib 0.001 | sotrastaurin 0.011 | alvocidib 0.016 | Tubastatin A -0.115 | [6] -0.011 | defactinib -0.008 | [7] -0.02 | encorafenib 0.032 | [8] -0.16 | alisertib 0.014 | [9] 0 | gefitinib -0.004

Two records picked at random from those above:
ABCB7 isoform 2 (UniProt O75027)
inactive: vemurafenib 0.043 | [1] -0.02 | barasertib 0.018 | [2] -0.07 | volasertib 0.014 | [3] 0.041 | [4] -0.078 | [5] -0.061 | saracatinib 0.014 | sotrastaurin 0.007 | alvocidib 0.014 | Tubastatin A 0.009 | [6] -0.08 | defactinib -0.065 | [7] -0.088 | encorafenib -0.028 | [8] 0.064 | alisertib 0.048 | [9] 0.01 | gefitinib -0.07

ABL2 (UniProt P42684)
inactive: vemurafenib 0.233 | [1] 0.222 | barasertib -0.002 | [2] 0.11 | volasertib -0.05 | [3] 0.009 | [4] 0.039 | [5] -0.128 | saracatinib 0.254 | sotrastaurin -0.02 | alvocidib 0.007 | Tubastatin A -0.04 | [6] 0.082 | defactinib 0.066 | [7] -0.108 | encorafenib 0.092 | [8] -0.068 | alisertib -0.123 | [9] -0.009 | gefitinib -0.176
